# Patent US20080280820 (published 2008)
# Positions of bridges follow the written chain, without caps; N, C: chain ends. Non-standard residues stand in square brackets, D forms with d. *: point of attachment. Palmitoyl = CCCCCCCCCCCCCCCC(=O)*; Hyp = O=C(O)[C@@H]1C[C@@H](O)CN1; Nle = CCCC[C@H](N)C(=O)O
# Experiments:
# [1] = general procedure: Fmoc solid-phase peptide synthesis; Rink amide polystyrene; HBTU/DIPEA with HOBt/HOAt (1:1); details: whole synthesis, scale 3.25 mmol
# [2] = general procedure: Fmoc solid-phase peptide synthesis; Rink amide polystyrene resin; HBTU/DIPEA with HOBt/HOAt (1:1); details: whole synthesis, UV 214 nm, scale of the general procedure 3.25 mmol
substance,measurement,setting,value
Palmitoyl-GT[dQ]HT[Nle]E[Hyp][dF]RWK-NH2 (lactam 7-12),isolated mass,[1],617 mg
same,isolated yield,[1],11% yield
same,final HPLC purity,[2],100% purity
